Data taken from PMC4176178.
These are yes or no findings as the source states them, for the method shown. Binding seen in cells or lysates may run through a third protein. Binding calls can cover weak binding; strength is not graded here.

Protein sequences, listed by entry. Tags and fused reporters are not part of them. Lines headed by an entry give the natural chain unless they say otherwise; changes in a name come on top.
UniProt Q9VY91: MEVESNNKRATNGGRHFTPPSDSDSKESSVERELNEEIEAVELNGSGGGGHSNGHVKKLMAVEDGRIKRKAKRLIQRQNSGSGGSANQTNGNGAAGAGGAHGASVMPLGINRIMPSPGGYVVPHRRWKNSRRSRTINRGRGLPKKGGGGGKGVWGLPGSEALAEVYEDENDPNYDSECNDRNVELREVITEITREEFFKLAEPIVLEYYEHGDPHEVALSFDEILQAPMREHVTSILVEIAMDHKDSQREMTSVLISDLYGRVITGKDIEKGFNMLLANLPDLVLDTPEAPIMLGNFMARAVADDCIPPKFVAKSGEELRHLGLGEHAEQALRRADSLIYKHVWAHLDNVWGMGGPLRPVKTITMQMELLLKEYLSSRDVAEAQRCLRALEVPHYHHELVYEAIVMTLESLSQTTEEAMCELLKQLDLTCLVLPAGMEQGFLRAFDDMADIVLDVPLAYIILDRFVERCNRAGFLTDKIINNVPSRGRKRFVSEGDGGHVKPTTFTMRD
UniProt P21187: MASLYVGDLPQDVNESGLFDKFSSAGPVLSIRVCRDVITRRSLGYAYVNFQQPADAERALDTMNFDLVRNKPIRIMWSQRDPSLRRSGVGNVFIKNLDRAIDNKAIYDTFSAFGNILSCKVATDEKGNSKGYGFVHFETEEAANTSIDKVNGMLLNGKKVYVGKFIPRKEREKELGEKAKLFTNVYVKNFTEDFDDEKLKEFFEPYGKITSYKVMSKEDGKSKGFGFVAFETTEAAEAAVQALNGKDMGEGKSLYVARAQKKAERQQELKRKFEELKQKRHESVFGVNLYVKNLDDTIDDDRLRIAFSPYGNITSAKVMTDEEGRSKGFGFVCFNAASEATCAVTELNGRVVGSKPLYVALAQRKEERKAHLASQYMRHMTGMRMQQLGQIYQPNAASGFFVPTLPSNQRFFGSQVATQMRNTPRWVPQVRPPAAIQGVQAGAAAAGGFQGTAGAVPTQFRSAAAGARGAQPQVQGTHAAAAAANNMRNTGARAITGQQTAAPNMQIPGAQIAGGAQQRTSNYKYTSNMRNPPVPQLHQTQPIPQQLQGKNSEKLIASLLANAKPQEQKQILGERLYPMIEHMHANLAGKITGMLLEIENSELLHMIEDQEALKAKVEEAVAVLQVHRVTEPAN

Target: GST-DmPdcd4 (Drosophila melanogaster Pdcd4 GST fusion protein) (Drosophila melanogaster) (UniProt Q9VY91)
Experiment: pull-down; GST proteins immobilised on glutathione sepharose, incubated with extract from Drosophila Schneider S2 cells; western blotting with antibodies against Drosophila PABP; also in the absence or presence of 0.5 μg/ml RNase A; only the target purified

For “Drosophila PABP (endogenous, Schneider S2 cell extract) (from UniProt P21187 1-634)”, the binding was “binds”.
